# Data as given in PubChem BioAssay AID1671195 (Yale University, 2021).
# Test: 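Knockdowns that increase or decrease uptake of fluorescent LDL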 (primary screen)
# Cells: human Huh7 hepatoma cells
# Reagents: siRNA pool against human genes, 18 nM
# Timing: about 2 to 2.5 days of knockdown, then 8 h LDL uptake
# Treatment: DiI-labelled LDL at 30 µg/ml for 8 h, in lipoprotein-deficient serum medium
# Read-out: 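Per-cell DiI-LDL intensity by automated imaging; well means scaled to the plate median and given as a robust z-score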
# Direction: robust z-score: higher = more LDL uptake after knockdown
# Hit rule: 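a gene counts as active if at least two replicate z-scores exceed ±2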
# This is a random part of about 22,000 reagents tested. In the full data, about 1,510 (6.9%) are marked active. 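Active includes knockdowns raising or lowering LDL uptake; positive z-scores mean more uptake, negative mean less.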 Unmarked entries are inactive. Reagents against one gene are numbered here. Reagent sequences are not shown.
Gene,reagent,"robust z-score, replicate 1","robust z-score, replicate 2","robust z-score, replicate 3"
THAP1,1,1.83 (active),2.29,2.38
PPEF2,1,-0.315,1,-1.16
DNM2,1,-0.652,-0.882,-0.779
ARL6,1,-1.63,-0.795,-1.54
LONRF3,1,-1.17,-1.61,-0.926
SEL1L2,1,0.563,0.791,0.414
RPL31,1,-1.22,-1.33,-0.761
AMIGO1,1,-0.84,-0.62,-0.273
SCRT1,1,-0.768,-0.789,1.18
FLJ46552 (retired record),1,0.371,-1.34,0.323
GLIPR2,1,0.473,0.664,-1.18
TEKT2,1,-1.2,-0.996,-0.0525
FRMD6,1,0.836,0.919,0.304
ZNF699,1,0.291,0.514,0.0694
SEMA6B,1,-1.15,0.236,-1.57
TSPAN10,1,-1.42,-1.17,-0.939
CARM1LP,1,1.2,0.225,0.474
ZKSCAN3,1,1.95,1.36,1.97
CREM,1,-1,-1.21,-1.23
LOC387690 (retired record),1,-1.41,-1.11,-1.32
SEPTIN10,1,-1.56,-1.17,-1.14
XRCC4,1,0.453,2.14,1.62
HIGD2A,1,1.72,1.93,1.55
FUT2,1,-1.08,-0.983,-1.05
TMEM233,1,-0.538,-0.64,-0.398
NIPA2,1,2.37 (active),2.75,3.2
CD79B,1,-0.693,-0.662,0.582
COMMD9,1,0.46,0.43,0.021
COMMD9,2,0.961,-0.69,0.593

Entries listed so far with an active call, once more:
Gene,reagent,"robust z-score, replicate 1","robust z-score, replicate 2","robust z-score, replicate 3"
THAP1,1,1.83 (active),2.29,2.38
NIPA2,1,2.37 (active),2.75,3.2
